Test results taken from patent US20080161289A1, “Fused Thiazole Derivatives Having Affinity for the Histamine H3 Receptor” (Glaxo Group Limited, priority 2005, published 2008).
Some of these results come from one statement about several compounds together.

The chains behind the UniProt entries cited, without tags or fusion partners. Where a name states a change or a piece, a line headed by the entry shows the natural chain unless it says otherwise.
UniProt Q9Y5N1: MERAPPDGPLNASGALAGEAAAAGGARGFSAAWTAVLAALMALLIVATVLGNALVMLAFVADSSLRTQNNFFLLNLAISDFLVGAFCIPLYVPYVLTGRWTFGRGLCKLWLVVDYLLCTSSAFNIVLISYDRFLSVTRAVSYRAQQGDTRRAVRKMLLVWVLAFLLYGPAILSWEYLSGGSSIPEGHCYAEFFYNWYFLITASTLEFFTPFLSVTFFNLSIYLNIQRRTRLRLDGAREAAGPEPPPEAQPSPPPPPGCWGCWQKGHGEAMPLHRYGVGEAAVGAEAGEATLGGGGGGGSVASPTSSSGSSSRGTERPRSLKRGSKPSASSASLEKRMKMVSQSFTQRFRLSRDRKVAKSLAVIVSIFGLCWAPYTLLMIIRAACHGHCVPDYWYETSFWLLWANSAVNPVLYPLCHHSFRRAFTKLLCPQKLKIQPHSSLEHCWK
UniProt P35367, whole entry: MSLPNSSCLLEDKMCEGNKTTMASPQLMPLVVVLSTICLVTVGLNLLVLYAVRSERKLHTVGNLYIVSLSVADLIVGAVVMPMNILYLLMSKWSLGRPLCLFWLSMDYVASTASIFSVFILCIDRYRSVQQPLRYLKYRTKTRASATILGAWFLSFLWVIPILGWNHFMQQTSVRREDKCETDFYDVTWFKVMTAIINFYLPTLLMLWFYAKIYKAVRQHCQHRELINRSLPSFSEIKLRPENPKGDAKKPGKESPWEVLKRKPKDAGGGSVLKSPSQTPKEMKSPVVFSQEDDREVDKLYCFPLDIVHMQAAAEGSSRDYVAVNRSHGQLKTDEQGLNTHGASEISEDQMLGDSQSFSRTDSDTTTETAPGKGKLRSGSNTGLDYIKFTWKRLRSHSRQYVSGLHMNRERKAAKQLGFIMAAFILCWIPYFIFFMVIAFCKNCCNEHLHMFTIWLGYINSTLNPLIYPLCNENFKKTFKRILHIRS

How the values were obtained:
[1] = target: T1, histamine H3 receptors (Homo sapiens, UniProt Q9Y5N1); experiment: Histamine H3 functional antagonist assay ([35S]-GTPγS SPA on membranes from H3 cells); format: biochemical; conditions: hydrochloride salts tested; H3 functional antagonist assay using membrane prepared from cultured H3 cells; averages of a number of experiments
T1 construct: expressed in transfected cells; host or cells: CHO K1 cells carrying pSwitch, transfected with pGeneH3, induced with mifepristone; clone 3H3; membrane preparation
Text: A membrane preparation containing histamine H3 receptors may be prepared in accordance with the following procedures:
(i) Generation of Histamine H3 Cell Line
DNA encoding the human histamine H3 gene (Huvar, A. et al. (1999) Mol. Pharmacol. 55(6), 1101-1107) was cloned into a holding vector, pCDNA3.1 TOPO (InVitrogen) and its cDNA was isolated from this vector by restriction digestion of plasmid DNA with the enzymes BamHI and Not-1 and ligated into the inducible expression vector pGene (InVitrogen) digested with the same enzymes. The GeneSwitch™ system (a system where in transgene expression is switched off in the absence of an inducer and switched on in the presence of an inducer) was performed as described in U.S. Pat. Nos. 5,364,791; 5,874,534; and 5,935,934. Ligated DNA was transformed into competent DH5α E. coli host bacterial cells and plated onto Luria Broth (LB) agar containing Zeocin™ (an antibiotic which allows the selection of cells expressing the sh ble gene which is present on pGene and pSwitch) at 50 μg ml^−1. Colonies containing the re-ligated plasmid were identified by restriction analysis. DNA for transfection into mammalian cells was prepared from 250 ml cultures of the host bacterium containing the pGeneH3 plasmid and isolated using a DNA preparation kit (Qiagen Midi-Prep) as per manufacturers guidelines (Qiagen).
CHO K1 cells previously transfected with the pSwitch regulatory plasmid (InVitrogen) were seeded at 2×10e6 cells per T75 flask in Complete Medium, containing Hams F12 (GIBCOBRL, Life Technologies) medium supplemented with 10% v/v dialysed foetal bovine serum, L-glutamine, and hygromycin (100 μg ml^−1), 24 hours prior to use. Plasmid DNA was transfected into the cells using Lipofectamine plus according to the manufacturers guidelines (InVitrogen). 48 hours post transfection cells were placed into complete medium supplemented with 500 μg ml^−1 Zeocin™.
10-14 days post selection 10 nM Mifepristone (InVitrogen), was added to the culture medium to induce the expression of the receptor. 18 hours post induction cells were detached from the flask using ethylenediamine tetra-acetic acid (EDTA; 1:5000; InVitrogen), following several washes with phosphate buffered saline pH 7.4 and resuspended in Sorting Medium containing Minimum Essential Medium (MEM), without phenol red, and supplemented with Earles salts and 3% Foetal Clone II (Hyclone). Approximately 1×10e7 cells were examined for receptor expression by staining with a rabbit polyclonal antibody, 4a, raised against the N-terminal domain of the histamine H3 receptor, incubated on ice for 60 minutes, followed by two washes in sorting medium. Receptor bound antibody was detected by incubation of the cells for 60 minutes on ice with a goat anti rabbit antibody, conjugated with Alexa 488 fluorescence marker (Molecular Probes). Following two further washes with Sorting Medium, cells were filtered through a 50 μm Filcon™ (BD Biosciences) and then analysed on a FACS Vantage SE Flow Cytometer fitted with an Automatic Cell Deposition Unit. Control cells were non-induced cells treated in a similar manner. Positively stained cells were sorted as single cells into 96-well plates, containing Complete Medium containing 500 μg ml^−1 Zeocin™ and allowed to expand before reanalysis for receptor expression via antibody and ligand binding studies. One clone, 3H3, was selected for membrane preparation.
(ii) Membrane Preparation from Cultured Cells
All steps of the protocol are carried out at 4° C. and with pre-cooled reagents. The cell pellet is resuspended in 10 volumes of homogenisation buffer (50 mM N-2-hydroxyethylpiperazine-N′-2-ethanesulfonic acid (HEPES), 1 mM ethylenediamine tetra-acetic acid (EDTA), pH 7.4 with KOH, supplemented with 10e-6M leupeptin (acetyl-leucyl-leucyl-arginal; Sigma L2884), 25 μg/ml bacitracin (Sigma B0125), 1 mM phenylmethylsulfonyl fluoride (PMSF) and 2×10e-6M pepstain A (Sigma)). […]

[2] = target: T2, human H1 receptor (Homo sapiens, UniProt P35367); experiment: Histamine H1 functional antagonist assay (FLIPR, histamine induced increase in fluorescence); format: cell-based; conditions: hydrochloride salts tested, Cheng-Prusoff equation, averages of a number of experiments
T2 construct: expressed in transfected cells

Compound: Cc1ccccc1C(=O)N1CCC(c2nc3c(s2)CCN(C2CCC2)CC3)CC1 [Example E78, 6-Cyclobutyl-2-{1-[(2-methylphenyl)carbonyl]-4-piperidinyl}-5,6,7,8-tetrahydro-4H-[1,3]thiazolo[4,5-d]azepine]
- functional pKi (fpKi) [1]: > 7.5
- functional pKi (fpKi) [2]: < 5.6

Compound: Cc1cc(C(=O)N2CCC(c3nc4c(s3)CCN(C3CCC3)CC4)CC2)[nH]n1 [Example E79, 6-Cyclobutyl-2-{1-[(3-methyl-1H-pyrazol-5-yl)carbonyl]-4-piperidinyl}-5,6,7,8-tetrahydro-4H-[1,3]thiazolo[4,5-d]azepine]
- functional pKi (fpKi) [1]: > 7.5
- functional pKi (fpKi) [2]: < 5.6

Compound: O=C(c1ccc(Cl)cc1)N1CCC(c2nc3c(s2)CCN(C2CCC2)CC3)CC1 [Example E80, 2-{1-[(4-Chlorophenyl)carbonyl]-4-piperidinyl}-6-cyclobutyl-5,6,7,8-tetrahydro-4H-[1,3]thiazolo[4,5-d]azepine]
- functional pKi (fpKi) [1]: > 7.5
- functional pKi (fpKi) [2]: < 5.6

Compound: O=C(c1cccc(Cl)c1)N1CCC(c2nc3c(s2)CCN(C2CCC2)CC3)CC1 [Example E81, 2-{1-[(3-Chlorophenyl)carbonyl]-4-piperidinyl}-6-cyclobutyl-5,6,7,8-tetrahydro-4H-[1,3]thiazolo[4,5-d]azepine]
- functional pKi (fpKi) [1]: > 7.5
- functional pKi (fpKi) [2]: < 5.6

Compound: Cc1cccc(C(=O)N2CCC(c3nc4c(s3)CCN(C3CCC3)CC4)CC2)c1 [Example E82, 6-Cyclobutyl-2-{1-[(3-methylphenyl)carbonyl]-4-piperidinyl}-5,6,7,8-tetrahydro-4H-[1,3]thiazolo[4,5-d]azepine]
- functional pKi (fpKi) [1]: > 7.5
- functional pKi (fpKi) [2]: < 5.6

Compound: Cc1cccnc1C(=O)N1CCC(c2nc3c(s2)CCN(C2CCC2)CC3)CC1 [Example E83, 6-Cyclobutyl-2-{1-[(3-methyl-2-pyridinyl)carbonyl]-4-piperidinyl}-5,6,7,8-tetrahydro-4H-[1,3]thiazolo[4,5-d]azepine]
- functional pKi (fpKi) [1]: > 7.5
- functional pKi (fpKi) [2]: < 5.6

Compound: O=C(c1cc[nH]n1)N1CCC(c2nc3c(s2)CCN(C2CCC2)CC3)CC1 [Example E84, 6-Cyclobutyl-2-[1-(1H-pyrazol-3-ylcarbonyl)-4-piperidinyl]-5,6,7,8-tetrahydro-4H-[1,3]thiazolo[4,5-d]azepine]
- functional pKi (fpKi) [1]: > 7.5
- functional pKi (fpKi) [2]: < 5.6

Compound: Cc1cn(C)nc1C(=O)N1CCC(c2nc3c(s2)CCN(C2CCC2)CC3)CC1 [Example E85, 6-Cyclobutyl-2-{1-[(1,4-dimethyl-1H-pyrazol-3-yl)carbonyl]-4-piperidinyl}-5,6,7,8-tetrahydro-4H-[1,3]thiazolo[4,5-d]azepine]
- functional pKi (fpKi) [1]: > 7.5
- functional pKi (fpKi) [2]: < 5.6

Compound: Cn1cccc1C(=O)N1CCC(c2nc3c(s2)CCN(C2CCC2)CC3)CC1 [Example E86, 6-Cyclobutyl-2-{1-[(1-methyl-1H-pyrrol-2-yl)carbonyl]-4-piperidinyl}-5,6,7,8-tetrahydro-4H-[1,3]thiazolo[4,5-d]azepine]
- functional pKi (fpKi) [1]: > 7.5
- functional pKi (fpKi) [2]: < 5.6

Compound: Cn1cncc1C(=O)N1CCC(c2nc3c(s2)CCN(C2CCC2)CC3)CC1 [Example E87, 6-Cyclobutyl-2-{1-[(1-methyl-1H-imidazol-5-yl)carbonyl]-4-piperidinyl}-5,6,7,8-tetrahydro-4H-[1,3]thiazolo[4,5-d]azepine]
- functional pKi (fpKi) [1]: > 7.5
- functional pKi (fpKi) [2]: < 5.6

Compound: Cc1cc(C(=O)N2CCC(c3nc4c(s3)CCN(C3CCC3)CC4)CC2)nn1C [Example E88, 6-Cyclobutyl-2-{1-[(1,5-dimethyl-1H-pyrazol-3-yl)carbonyl]-4-piperidinyl}-5,6,7,8-tetrahydro-4H-[1,3]thiazolo[4,5-d]azepine]
- functional pKi (fpKi) [1]: > 7.5
- functional pKi (fpKi) [2]: < 5.6

Compound: Cn1cnc(C(=O)N2CCC(c3nc4c(s3)CCN(C3CCC3)CC4)CC2)c1 [Example E89, 6-Cyclobutyl-2-{1-[(1-methyl-1H-imidazol-4-yl)carbonyl]-4-piperidinyl}-5,6,7,8-tetrahydro-4H-[1,3]thiazolo[4,5-d]azepine]
- functional pKi (fpKi) [1]: > 7.5
- functional pKi (fpKi) [2]: < 5.6

Compound: O=C(c1ccccn1)N1CCC(c2nc3c(s2)CCN(C2CCC2)CC3)CC1 [Example E90, 6-Cyclobutyl-2-[1-(2-pyridinylcarbonyl)-4-piperidinyl]-5,6,7,8-tetrahydro-4H-[1,3]thiazolo[4,5-d]azepine]
- functional pKi (fpKi) [1]: > 7.5
- functional pKi (fpKi) [2]: < 5.6

Compound: O=C(c1cccnc1)N1CCC(c2nc3c(s2)CCN(C2CCC2)CC3)CC1 [Example E91, 6-Cyclobutyl-2-[1-(3-pyridinylcarbonyl)-4-piperidinyl]-5,6,7,8-tetrahydro-4H-[1,3]thiazolo[4,5-d]azepine]
- functional pKi (fpKi) [1]: > 7.5
- functional pKi (fpKi) [2]: < 5.6

Compound: Cc1cncc(C(=O)N2CCC(c3nc4c(s3)CCN(C3CCC3)CC4)CC2)n1 [Example E92, 6-Cyclobutyl-2-{1-[(6-methyl-2-pyrazinyl)carbonyl]-4-piperidinyl}-5,6,7,8-tetrahydro-4H-[1,3]thiazolo[4,5-d]azepine]
- functional pKi (fpKi) [1]: > 7.5
- functional pKi (fpKi) [2]: < 5.6

Compound: Cc1cc(C(=O)N2CCC(c3nc4c(s3)CCN(C3CCC3)CC4)CC2)ccn1 [Example E93, 6-Cyclobutyl-2-{1-[(2-methyl-4-pyridinyl)carbonyl]-4-piperidinyl}-5,6,7,8-tetrahydro-4H-[1,3]thiazolo[4,5-d]azepine]
- functional pKi (fpKi) [1]: > 7.5
- functional pKi (fpKi) [2]: < 5.6

Compound: O=C(c1ccncc1)N1CCC(c2nc3c(s2)CCN(C2CCC2)CC3)CC1 [Example E94, 6-Cyclobutyl-2-[1-(4-pyridinylcarbonyl)-4-piperidinyl]-5,6,7,8-tetrahydro-4H-[1,3]thiazolo[4,5-d]azepine]
- functional pKi (fpKi) [1]: > 7.5
- functional pKi (fpKi) [2]: < 5.6

Compound: Cc1nccc(C(=O)N2CCC(c3nc4c(s3)CCN(C3CCC3)CC4)CC2)n1 [Example E95, 6-Cyclobutyl-2-{1-[(2-methyl-4-pyrimidinyl)carbonyl]-4-piperidinyl}-5,6,7,8-tetrahydro-4H-[1,3]thiazolo[4,5-d]azepine]
- functional pKi (fpKi) [1]: > 7.5
- functional pKi (fpKi) [2]: < 5.6

Compound: Cc1ncc(C(=O)N2CCC(c3nc4c(s3)CCN(C3CCC3)CC4)CC2)cn1 [Example E96, 6-Cyclobutyl-2-{1-[(2-methyl-5-pyrimidinyl)carbonyl]-4-piperidinyl}-5,6,7,8-tetrahydro-4H-[1,3]thiazolo[4,5-d]azepine]
- functional pKi (fpKi) [1]: > 7.5
- functional pKi (fpKi) [2]: < 5.6

Compound: O=C(N1CCOCC1)N1CCC(c2nc3c(s2)CCN(C2CCC2)CC3)CC1 [Example E97, 6-Cyclobutyl-2-[1-(4-morpholinylcarbonyl)-4-piperidinyl]-5,6,7,8-tetrahydro-4H-[1,3]thiazolo[4,5-d]azepine]
- functional pKi (fpKi) [1]: > 7.5
- functional pKi (fpKi) [2]: < 5.6

Compound: O=C(N1CCCC1)N1CCC(c2nc3c(s2)CCN(C2CCC2)CC3)CC1 [Example E98, 6-Cyclobutyl-2-[1-(1-pyrrolidinylcarbonyl)-4-piperidinyl]-5,6,7,8-tetrahydro-4H-[1,3]thiazolo[4,5-d]azepine]
- functional pKi (fpKi) [1]: > 7.5
- functional pKi (fpKi) [2]: < 5.6

Compound: O=S1(=O)CCCN1c1ccc(-c2nc3c(s2)CCN(C2CCC2)CC3)cc1 [Example E99, 6-Cyclobutyl-2-[4-(1,1-dioxido-2-isothiazolidinyl)phenyl]-5,6,7,8-tetrahydro-4H-[1,3]thiazolo[4,5-d]azepine]
- functional pKi (fpKi) [1]: > 7.5
- functional pKi (fpKi) [2]: < 5.6
